Data taken from PubChem BioAssay AID540276 (National Center for Advancing Translational Sciences (NCATS), 2011).
Out of some 300,000 compounds screened, about 5,400 (1.8%) were called active. This list was built around the results that the source calls inconclusive (neither active nor inactive); the mix of calls is not that of the screen. The call rests on the fitted dose curve; tested in HEK293 cells. A potency beside an inconclusive call is a rough fit, not a confirmed value. More than one record can exist for a structure, and the calls need not agree.

Assay: qHTS for inhibitors of binding or entry into cells for Marburg Virus
Conditions: Marburg virus pseudotyped entry inhibition, cell reporter; activity change, negative = inhibition: at 37.8 µM (top of the series) unless noted
On the % scale 0 is the no-effect control and ±100 the full control effect; potency means the concentration at half of the fitted maximal effect.

Compound | activity change, negative = inhibition | Potency
COc1ccc(OC)c(Nc2nc3ccccc3n3c(C)nnc23)c1 | inactive: 11.2% [at 46.1 µM] | 
CCOc1ccc(N2C(=O)S/C(=C\c3cccn3C)C2=O)cc1 | inactive: 1.33% | 
COC(=O)c1cc(COC(=O)COc2ccc(C)c(C)c2)oc1C | inactive: -0.0085% [at 46.1 µM] | 
O=C(Nc1ccccc1[N+](=O)[O-])C1(c2ccccc2)CCOCC1 |  | inconclusive: 0.112 µM [inhibitor, full curve, poor fit]
O=C(NN=Cc1ccccc1)NN=Cc1ccccc1 |  | inconclusive: 12.6 µM [inhibitor, partial curve, poor fit]
Cc1cc(OCC(=O)N2CCc3ccccc3C2)c2c(-c3ccccc3)cc(=O)oc2c1 |  | inconclusive: 15.8 µM [inhibitor, single point]
CCNc1ccc(S(=O)(=O)N(C)C)cc1NCC(=O)Nc1ccccc1Cl |  | inconclusive: 7.08 µM [inhibitor, partial curve, poor fit]
CCOC(=O)C1C(c2ccccc2)NC(=S)NC1(C)O (centres undefined) |  | inconclusive: 6.31 µM [activator, single point]
CCCc1nn(C)c(C(=O)Nc2cccc(CC)c2)c1Cl |  | inconclusive: 7.94 µM [activator, partial curve, poor fit]
CCOc1ccccc1NC(=O)CC1C(=O)NCCN1C(=O)c1ccc(F)cc1 (centres undefined) | inactive: -20.3% [at 46.1 µM] | 
CN1C=CC=C/C1=C1\SC(=S)N(c2ccccc2)C1=O |  | inconclusive: 0.316 µM [activator, partial curve, poor fit]
COC(=O)c1ccc(NC(=O)CSCc2ccccc2)cc1 |  | inconclusive: 2.51 µM [activator, full curve]
Cc1cc(C)cc(OCC(=O)OCC(=O)N(C)CC(=O)Nc2ccc(F)cc2)c1 |  | inconclusive: 35.5 µM [activator, single point]
O=Cc1ccc2noc(-c3ccc(Cl)cc3)c2c1 |  | inconclusive: 6.31 µM [inhibitor, single point]
COCCN1C(=O)c2[nH]nc(-c3ccccc3O)c2C1c1ccc(OC)cc1 (centres undefined) | inactive: -4.42% | 
Cc1ccc(S(=O)(=O)c2[nH]c(-c3ccccc3)nc2SC(C)C(=O)O)cc1 (centres undefined) | inactive: -1.53% [at 46.1 µM] | 
CCCCCN(C(=O)CCC(=O)OC(C)C(=O)Nc1cccc(C#N)c1)c1c(N)n(CCCC)c(=O)[nH]c1=O (centres undefined) |  | inconclusive: 10 µM [inhibitor, partial curve, poor fit]
CCOc1ccc(-c2cccc(NC(=O)c3ccco3)c2)nn1 | inactive: -5.74% | 
CC(=O)N1CCN(C(=O)c2cccc(S(=O)(=O)NCc3ccccc3)c2)CC1 |  | inconclusive: 11.2 µM [activator, partial curve, poor fit]
CCN(CC(=O)Nc1c(F)cccc1F)C(=O)CSCC(=O)Nc1ccc(OC)cc1 | inactive: 22.3% | 
CC(=O)c1cccc(NC(=O)Nc2cccnc2)c1 | inactive: 4.94% | 
CCn1cc(C(=O)c2cccs2)c2ccccc21 | inactive: 15.8% | 

Compound | activity change, negative = inhibition | Potency
CC(=O)NC12CC3CC(C1)CC(C(=O)Nc1ccc(C)c(S(=O)(=O)N4CCCCCC4)c1)(C3)C2 |  | inconclusive: 0.141 µM [inhibitor, full curve, poor fit]
CCC(=O)c1ccccc1OCCCN1CCC(Cc2ccccc2)CC1 |  | inconclusive: 2.82 µM [inhibitor, full curve]
COc1cccc(OC)c1C(=O)NC(=S)N1CCN(c2ccc(C(F)(F)F)cc2[N+](=O)[O-])CC1 |  | inconclusive: 11.2 µM [inhibitor, single point]
COc1ccc(N2CCN(CCCNC(=O)c3nnc(Cc4ccccc4Cl)o3)CC2)cc1 |  | inconclusive: 10 µM [inhibitor, partial curve, poor fit]
Cc1cc(C)n2c(Nc3ccc4c(c3)OCCO4)c(-c3ccccc3)nc2n1 |  | inconclusive: 22.4 µM [activator, single point]
O=C1Nc2c(Cl)cc(Cl)cc2C1=O |  | inconclusive: 14.1 µM [inhibitor, partial curve, poor fit]
CC(C)Cc1cc(CN2CCC(CO)(Cc3cccc(C(F)(F)F)c3)CC2)[nH]n1 |  | inconclusive: 7.94 µM [inhibitor, partial curve, poor fit]
CC(=O)c1ccc(NC(=O)NCc2ccc(F)cc2)cc1 |  | inconclusive: 3.98 µM [activator, full curve, poor fit]
Cc1ccccc1OCC(=O)NCCCNC(=O)c1ccccn1 |  | inconclusive: 35.5 µM [activator, single point]
O=C(COC(=O)C1CC1)NCCc1ccc(Cl)cc1 |  | inconclusive: 10 µM [activator, partial curve, poor fit]
Cc1ccc(Cl)cc1NC(=O)Cn1cc(C(F)(F)F)cc(Cl)c1=O |  | inconclusive: 10 µM [activator, partial curve, poor fit]
CCN1CCN(CCCNC(=O)c2cc3c(=O)[nH]c4ccccc4c3s2)CC1 |  | inconclusive: 25.9 µM [inhibitor, single point]
C/C(CC(=O)Nc1cc(C)ccn1)=N\NC(=O)c1ccncc1 | inactive: 13.4% [at 46.1 µM] | 
CN(C)c1nc(-c2cccnc2)nc(-c2ccccc2)c1C#N |  | inconclusive: 3.98 µM [inhibitor, single point]
CC(=O)c1ccc(NC(=O)c2cc3c([nH]c2=O)CC(c2ccccc2)CC3=O)cc1 (centres undefined) | inactive: 11.3% [at 46.1 µM] | 
COc1ccc(CNc2oc(COc3ccc(Cl)cc3)nc2C#N)cc1 | inactive: -22.6% | 
Cc1cc(C)c(S(=O)(=O)N2CCCCC2CCNC(=O)C(=O)NCc2ccccn2)c(C)c1 (centres undefined) |  | inconclusive: 3.55 µM [activator, single point]
Cc1cc(C)c(C(=O)CSc2nnc(-c3ccccc3Br)o2)cc1C | inactive: 10.1% | 
Cc1cc(C)nc(NC(=O)CN2C(=O)c3ccccc3S2(=O)=O)n1 | inactive: 0% | 
COc1ccccc1C(=O)NCC(=O)N/N=C/c1ccc2c(c1)OCO2 |  | inconclusive: 5.62 µM [inhibitor, full curve, poor fit]
CC(C)(C)c1ccc(OCC(=O)O)cc1 |  | inconclusive: 29.1 µM [activator, partial curve, poor fit]

A different layout for part of the listing above:
CC(=O)c1ccc(NC(=O)NCc2ccc(F)cc2)cc1
  Potency: inconclusive: 3.98 µM [activator, full curve, poor fit]
Cc1ccccc1OCC(=O)NCCCNC(=O)c1ccccn1
  Potency: inconclusive: 35.5 µM [activator, single point]
